Data taken from ChEMBL document CHEMBL3988442, “University of Dundee, Small-Polar-MMV Screening Library” (2021).

The chains behind the UniProt entries cited, without tags or fusion partners.
UniProt P9WFT3, whole entry: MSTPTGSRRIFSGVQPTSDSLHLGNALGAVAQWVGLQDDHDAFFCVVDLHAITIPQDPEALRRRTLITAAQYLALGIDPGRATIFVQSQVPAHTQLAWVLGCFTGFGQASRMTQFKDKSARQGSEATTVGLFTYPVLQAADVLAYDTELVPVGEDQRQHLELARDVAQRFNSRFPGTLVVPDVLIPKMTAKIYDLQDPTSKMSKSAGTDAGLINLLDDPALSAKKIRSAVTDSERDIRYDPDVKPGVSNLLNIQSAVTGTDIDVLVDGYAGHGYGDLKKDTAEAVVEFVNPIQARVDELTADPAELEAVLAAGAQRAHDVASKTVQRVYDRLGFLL

MtTrpRS: 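Tryptophan-tRNA ligase, Mycobacterium tuberculosis (UniProt P9WFT3). Enzyme assay of tryptophanyl-tRNA synthetase; the read-out is not stated. Tested at 10 µM. Direction is not recorded; retested compounds ran higher, which suggests that high means inhibition. About 65,000 compounds were tested under these conditions; 0.098% (about 64) showed 50% or more at least once.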
Leishmania in macrophages: 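Cell assay of Leishmania donovani living inside macrophages; the read-out is not stated. Concentration: 30 µM. Direction is inferred from retests: higher values go with stronger inhibition. Of about 69,000 compounds tested this way, about 1,000 (1.5%) reached 50% or more in at least one test.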

The filed quantity is “Percent Effect” (%).
The controls that fix the scale are not given in the record; negative values are as filed.
The compounds are a random part of those screened.
Two or more numbers in one place are separate tests of the same structure; such repeats can differ widely.
A dash means the value is not listed here; it may have been measured.

Compound,MtTrpRS,Leishmania in macrophages
COCCCN1CCCC12CCN(Cc1cccnc1OC)CC2,-0.3236,-
COc1ccc(-c2nnc(SC(C)C(=O)NC3CCCC3)[nH]2)c(OC)c1 (configuration not stated),-1.231,1.478
CCN1CC2(CC1=O)CN(C(C)=O)CCN(C(=O)NC)C2 (configuration not stated),-,21.29
COCCOc1ncccc1C(=O)N(C)c1ccc(OC)nc1,1.722,9.6
N#Cc1cccnc1N1CCN(C(=O)CCC(=O)c2cccs2)CC1,10.98,30.41
CN(CC(=O)N1CCCCC1c1nccs1)C1CC1 (configuration not stated),3.01,-33.12
Cc1cc(CN(C)C2CCCN(Cc3noc(C4CC4)n3)C2)no1 (configuration not stated),0.09747,5.165
Cn1nnc2cc(C(=O)N3CCC(Nc4cccnn4)CC3)ccc21,-3.603,11.94
CN1CCC(C)(CNC(=O)c2ccc(SCc3cccnc3)cc2)CC1,-4.465,-9.851
COc1cn(-c2ccccc2)nc1C(=O)NCCN1CCCC(C)C1 (configuration not stated),-0.2921,21.09
Cc1oc(NC(=O)C(C)N2CCN(C(C)(C)CO)CC2)c(C#N)c1C (configuration not stated),0.6861,24.16
c1cnc(-c2nc(CN3CCn4c(nnc4C4CC4)C3)cs2)nc1,-3.462,6.596
CC1(COc2ccccc2)NCCc2[nH]cnc21 (configuration not stated),-2.873,10.7
Cc1cc(C)n(C2CCCN(C(=O)c3csc(C4CC4)n3)C2)n1 (configuration not stated),-1.827,-25.59
COc1cccc(CCNC(=O)NC(C)C)c1O,19.62,9.685
Cc1c[nH]c(CN2CCCn3nc(CNS(C)(=O)=O)cc3C2)n1,8.505,-6.073
Cc1ccc(CN2CCc3ncnc(C4CCOC4)c3CC2)s1.O=C(O)C(F)(F)F (configuration not stated),-,11.24
Cn1cc(C(=O)N[C@H]2CN(Cc3nccs3)[C@@H]3CCCO[C@H]23)cn1,0.8137,-
CC(C)NC(=O)c1nnn(-c2ccc(F)cc2)c1C1CC1,1.91,-12.45
CC(C)(CO)N1CCN(S(=O)(=O)CCCF)CC1,-2.365,12.78
Cc1nn(C)c2ncc(NC(=O)N(C)Cc3cc(Cl)cn3C)cc12,-1.445,-5.357
Cc1cnn(CC2CN(CCCc3nc4ccccc4o3)CCO2)c1 (configuration not stated),1.755,4.266
CC(=O)N1CCC(c2n[nH]cc2-c2ccnc(N)c2)C1 (configuration not stated),11.33,29.98
COc1c(CNCc2ccc(N3CCOCC3)nc2)c(C)nn1C,-2.224,10.94
CCc1c(C(=O)N2CCOC(C)(C)C2)cnn1-c1ccccn1,3.367,0.1212
O=C(c1cncc(N2CC[C@@]3(O)CCNC[C@H]3C2)n1)N1CCCC1,-5.857,-
CC(C)C1CN(S(=O)(=O)N(C)C)CCCN1Cc1ccc(F)cc1 (configuration not stated),-3.199,9.852
O=C(c1scc2c1OCCO2)N1CCC(Cc2cccc(CO)c2)C1 (configuration not stated),0.6299,18.78
CCc1nnc(CN2CCN(C(C)=O)CC2)o1,-0.08818,28.45
CS(=O)(=O)CCN(CCc1cccc(F)c1)C1CC1,-0.7342,-21.81
O=C(CN1CCCC1Cn1cncn1)Nc1ccnn1C1CCCC1 (configuration not stated),2.546,3.454
CCN(C)c1ncnc2c1CCN(C(=O)NCc1cccnc1)CC2.O=C(O)C(F)(F)F,-,10.6
CCCN1CCN(C(=O)c2cnn(-c3ccccc3F)c2)CC1,-1.521,10.05
CC(=O)NCCNC(=O)CN1CCCC1c1c(C)nn(C)c1C (configuration not stated),6.215,-10.83
Cc1cccc(C(Nc2nccc(C)n2)C2CC2)n1 (configuration not stated),1.464,-5.567
Cc1nnc2n1CC(CNCc1nc(-c3cccs3)no1)CC2 (configuration not stated),8.843,-47.46
Cc1ccccc1CN(C)C(=O)c1cc(C2CCCN2C)ccn1 (configuration not stated),-,4.431
Clc1snnc1CN1CCCCC1Cn1cccn1 (configuration not stated),16.73,-20.3
CN(C)C(=O)CCC[S+]([O-])Cc1cc(Cl)ccc1Cl (configuration not stated),-1.783,21.22
CN(CCO)Cc1cc(=O)n2cc(Br)ccc2n1,-7.725,7.011
CN(C)S(=O)(=O)N1CC[C@]2(O)CCN(Cc3cc(F)cc(F)c3)C[C@@H]2C1,-4.549,-
CCN1CCn2c(C)cnc2C12CCN(C(=O)NC)CC2.O=C(O)C(F)(F)F,-,14.38
COCCC(=O)N1CCCC(CCC(=O)NCc2ccccc2F)C1 (configuration not stated),-2.041,31.18
CN1C(=O)CCc2cc(NC(=O)C3CC3)ccc21,-0.07598,-16.56 and -27.82
CC(=O)Nc1cc(-c2cccc(F)c2F)n[nH]1,-1.677,34.5
c1cn(-c2ccc(N3CCC(NC4CC4)CC3)cc2)cn1,0.2441,1.988
CNS(=O)(=O)c1ccc(CN(C)Cc2nc3ccc(F)cc3[nH]2)cc1,0.6452,-17.23
O=C(CCc1ccsc1)NCC1CCN(c2ccccc2)C1 (configuration not stated),1.517,-25.34
CN1CCN(Cc2cnn(-c3ccccc3Cl)c2)[C@H]2CS(=O)(=O)C[C@H]21,-0.854,-
COC(=O)c1ccc(NC(C)c2ccc3c(c2)CC(=O)N3)nn1 (configuration not stated),6.452,32.61
CNC(=O)N1CCC2(COCc3c(C)nc(NCc4ccco4)nc32)C1 (configuration not stated),-4.584,13.56

Some entries from above, unchanged:

- COc1cccc(CCNC(=O)NC(C)C)c1O | MtTrpRS: 19.62%; Leishmania in macrophages: 9.685%
- O=C(CCc1ccsc1)NCC1CCN(c2ccccc2)C1 (configuration not stated) | MtTrpRS: 1.517%; Leishmania in macrophages: -25.34%
- O=C(CN1CCCC1Cn1cncn1)Nc1ccnn1C1CCCC1 (configuration not stated) | MtTrpRS: 2.546%; Leishmania in macrophages: 3.454%